In PubChem BioAssay AID588590 (National Center for Advancing Translational Sciences (NCATS), 2011):
Screen size: about 390,000 compounds; about 4,000 (1%) were called active. Inconclusive results, whose numbers are uncertain, are shown with a selection of clear calls. Calls come from the whole dose curve; as a rule, active = well fitted inhibition curve with a large enough effect; inconclusive = small, poorly fitted or top-dose-only effect, or another doubt; inactive = no such curve, though single readings can be large or run the other way. Potencies beside an inconclusive call are fits to weak or partial responses and may not hold up.

The chains behind the UniProt entries cited, without tags or fusion partners. Where a name states a change or a piece, a line headed by the entry shows the natural chain unless it says otherwise.
UniProt Q9UNA4: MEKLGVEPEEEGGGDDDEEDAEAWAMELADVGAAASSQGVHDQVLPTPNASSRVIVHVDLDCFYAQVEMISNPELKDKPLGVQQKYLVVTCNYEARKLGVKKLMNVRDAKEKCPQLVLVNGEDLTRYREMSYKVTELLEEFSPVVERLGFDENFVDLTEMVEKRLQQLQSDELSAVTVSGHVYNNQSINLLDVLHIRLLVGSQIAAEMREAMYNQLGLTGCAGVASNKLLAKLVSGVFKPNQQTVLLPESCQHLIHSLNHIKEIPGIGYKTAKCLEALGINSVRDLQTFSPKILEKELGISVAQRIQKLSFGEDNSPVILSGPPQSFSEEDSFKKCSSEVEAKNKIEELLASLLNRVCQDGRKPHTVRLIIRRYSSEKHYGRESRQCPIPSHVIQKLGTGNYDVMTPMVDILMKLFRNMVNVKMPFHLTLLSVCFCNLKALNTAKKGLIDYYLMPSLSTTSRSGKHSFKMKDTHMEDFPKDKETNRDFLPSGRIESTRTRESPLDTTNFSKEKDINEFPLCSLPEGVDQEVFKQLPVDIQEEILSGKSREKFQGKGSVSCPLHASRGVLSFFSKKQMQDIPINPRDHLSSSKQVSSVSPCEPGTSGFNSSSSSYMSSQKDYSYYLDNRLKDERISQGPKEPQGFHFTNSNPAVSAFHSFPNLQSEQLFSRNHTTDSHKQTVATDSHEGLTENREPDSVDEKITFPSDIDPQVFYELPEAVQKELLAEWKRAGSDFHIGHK

These compounds were tested against DNA polymerase iota (Homo sapiens) (UniProt Q9UNA4) (assay: qHTS for Inhibitors of Polymerase Iota). Settings: Pol iota fluorescent replication assay, 10 min; series mostly up to 115 µM; activity, negative = inhibition: at the top concentration.
In short: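 Pol iota at 10 nM preincubated 15 min with compounds at room temperature; reaction started with fluorescent substrate, 50 nM final. Fluorescence read kinetically at 0 and 10 min; buffer-only wells as negative control.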
Potency is the fitted concentration of half-maximal effect.

SMILES | activity, negative = inhibition | Potency
O=S1(=O)C2CC3C=CC2(CN1Cc1ccccc1)O3 (configuration not stated) | inactive: 17.6% | –
CC1(C)CC(=O)C2=C(C1)NC(Nc1nc3ccccc3o1)=NC2c1cccc(F)c1 (configuration not stated) | inactive: 35.8% | –
Cc1cc(=O)oc2cc(NC(=O)CCOc3ccccc3)ccc12 | – | inconclusive: 56.2 µM [inhibitor, partial curve, poor fit]
O=C(CSc1nc(=O)n(Cc2ccco2)c2c1CCC2)NCc1ccccc1 | inactive: 21.6% | –
Clc1ccccc1OCCSc1nnc(-c2cccs2)o1 | inactive: -0.399% | –
COc1ccc(C)cc1S(=O)(=O)NNc1nc(C)cc(C)n1 | – | inconclusive: 15.8 µM [inhibitor, full curve, poor fit]
CC(=O)c1ccc(OCC(O)Cn2nnc3ccccc32)cc1 (configuration not stated) | – | inconclusive: 89.1 µM [inhibitor, single point]
CCCc1cc(=O)[nH]c(SCC(=O)Nc2c(C)cccc2C)n1 | – | inconclusive: 79.4 µM [inhibitor, partial curve, poor fit]
Cc1ccc(N(Cc2cc3ccc(C)cc3[nH]c2=O)S(C)(=O)=O)c(C)c1 | inactive: 1.57% | –
CC1(C)CC(=O)C(C=Nc2cc(C(=O)c3ccccc3)ccc2N)=C(O)C1 | – | inconclusive: 12.6 µM [inhibitor, full curve, poor fit]
CNc1n[nH]c(=S)s1 | – | inconclusive: 22.4 µM [inhibitor, partial curve, poor fit]
CCC(C)C(NC(=O)c1ccccc1NC(=O)c1ccc(OC)cc1)C(=O)NCc1ccco1 (configuration not stated) | – | inconclusive: 56.2 µM [inhibitor, partial curve, poor fit]
CCN(CC)S(=O)(=O)c1cccc(NC(=O)COc2ccc(F)cc2Br)c1 | – | inconclusive: 79.4 µM [inhibitor, partial curve, poor fit]
CCn1c(SCC(=O)Nc2oc(-c3ccccc3)c(-c3ccccc3)c2C#N)nnc1-c1cc(OC)cc(OC)c1 | – | inconclusive: 112 µM [inhibitor, partial curve, poor fit]
COc1ccc(/C=C2\Oc3cc(OCC(N)=O)ccc3C2=O)cc1OC | – | inconclusive: 20 µM [inhibitor, full curve, poor fit]
N#Cc1c(N2CCCC2)nc(N)c2c(N)nc(N3CCCC3)cc12 | – | active: 2.51 µM
Cc1cccc(C(=O)N2CCc3cc(CNC(=O)c4cc5ccccc5[nH]4)ccc32)c1 | inactive: -7.6% | –
COc1ccc(OCCCCN(C)Cc2ccccc2)cc1 | – | inconclusive: 44.7 µM [inhibitor, partial curve]
CCOc1ccc(C2C(=O)N(C3CCCCCC3)CC(=O)N2Cc2ccccc2)cc1OC (configuration not stated) | inactive: 17% | –
Cc1ccc(C(=O)N2CCC3(CC2)Oc2ccc(F)cc2C(=O)C32CC(c3ccc(Cl)cc3)=NO2)s1 (configuration not stated) | – | inconclusive: 15.8 µM [inhibitor, partial curve]
O=C(C1=C[C@@H](c2ccc(C(F)(F)F)cc2)C[C@@H](OCc2ccc(CO)cc2)O1)N1CCN(Cc2ccc3c(c2)OCO3)CC1 | – | inconclusive: 14.1 µM [inhibitor, partial curve, poor fit]

SMILES | activity, negative = inhibition | Potency
Cn1c(C(=O)NCCN2CCCCCC2)cc2c(=O)n(C)c3ccccc3c21 | – | inconclusive: 79.4 µM [inhibitor, single point]
Cc1cc(-c2c(C)[nH]n(-c3ccccc3)c2=O)n[nH]1 | – | inconclusive: 17.8 µM [inhibitor, partial curve, poor fit]
Clc1ccc(C[n+]2csc3ccccc32)cc1 | – | inconclusive: 28.2 µM [inhibitor, partial curve, poor fit]
CCOc1cc(/C=C2\CCCc3c2nc2ccccc2c3C(=O)O)ccc1OC | – | inconclusive: 15.8 µM [inhibitor, full curve, poor fit]
O=C(COC(=O)CCc1nc2ccccc2c(=O)[nH]1)Nc1ccccc1 | inactive: -12.7% | –
COc1ccc(NC2c3ncccc3C(=O)N2Cc2cccs2)cc1 (configuration not stated) | – | inconclusive: 31.6 µM [inhibitor, partial curve, poor fit]
Oc1ccc(/C=N/N(c2ccccc2)c2ccccc2)cc1O | – | inconclusive: 89.1 µM [inhibitor, partial curve, poor fit]
O=C1C(=O)N(CCOCCO)C(c2ccccn2)/C1=C(\O)c1ccccc1 (configuration not stated) | – | inconclusive: 39.8 µM [inhibitor, single point]
CC1CCC/C(=C\Nc2ccc(O)cc2)C1=O (configuration not stated) | – | active: 8.91 µM
O=C1CCCC2=C1C(c1ccco1)Nc1ccc3ccccc3c12 (configuration not stated) | – | active: 6.31 µM
O=C1CCCC(O)=C1N=Nc1ccc(S(=O)(=O)N2CCOCC2)cc1 | – | active: 35.5 µM
O=C(O)c1nn(CCSc2ccccc2F)c(=O)c2ccccc12 | – | inconclusive: 100 µM [inhibitor, single point]
Cc1ccc(C)c(S(=O)(=O)c2c(N)n(/N=C/c3ccco3)c3nc4ccccc4nc23)c1 | – | inconclusive: 28.2 µM [inhibitor, single point]
Cc1cccc2c1ncc1c(=O)n(-c3ccccc3)[nH]c12 | – | inconclusive: 2.82 µM [inhibitor, partial curve, poor fit]
CCc1ccc2oc(C(=O)N(Cc3ccc(N(C)C)cc3)Cc3ccco3)c(C)c2c1 | inactive: -8.58% | –
COc1ccccc1/C=C(/NC(=O)c1ccccc1)C(=O)NCCN1CCOCC1 | inactive: 6.92% | –
O=C(O)CCCc1ccc2ccc3cccc4ccc1c2c34 | – | inconclusive: 31.6 µM [inhibitor, single point]
O=C(NN=C1CCCC1)c1cc(Cl)cc(Cl)c1O | – | inconclusive: 25.1 µM [inhibitor, partial curve]
CSc1ccccc1N=Cc1nc(-c2ccccc2)oc1O | – | inconclusive: 25.1 µM [inhibitor, partial curve, poor fit]
O=C(CN1C(=O)CS/C1=C\c1nc(-c2ccc(Cl)cc2)cs1)Nc1cccnc1Cl | – | inconclusive: 11.2 µM [inhibitor, partial curve, poor fit]
Cc1noc(C)c1COc1ccc(C(=O)OCC(=O)c2ccc3c(c2)OCCO3)cc1 | – | inconclusive: 31.6 µM [inhibitor, single point]

Part of the list above in order of SMILES length, largest number first.
SMILES | activity, negative = inhibition | Potency
Cc1ccc(C)c(S(=O)(=O)c2c(N)n(/N=C/c3ccco3)c3nc4ccccc4nc23)c1 | – | inconclusive: 28.2 µM [inhibitor, single point]
CCc1ccc2oc(C(=O)N(Cc3ccc(N(C)C)cc3)Cc3ccco3)c(C)c2c1 | inactive: -8.58% | –
Cc1noc(C)c1COc1ccc(C(=O)OCC(=O)c2ccc3c(c2)OCCO3)cc1 | – | inconclusive: 31.6 µM [inhibitor, single point]
Cn1c(C(=O)NCCN2CCCCCC2)cc2c(=O)n(C)c3ccccc3c21 | – | inconclusive: 79.4 µM [inhibitor, single point]
O=C(COC(=O)CCc1nc2ccccc2c(=O)[nH]1)Nc1ccccc1 | inactive: -12.7% | –
O=C(O)c1nn(CCSc2ccccc2F)c(=O)c2ccccc12 | – | inconclusive: 100 µM [inhibitor, single point]
Oc1ccc(/C=N/N(c2ccccc2)c2ccccc2)cc1O | – | inconclusive: 89.1 µM [inhibitor, partial curve, poor fit]
Clc1ccc(C[n+]2csc3ccccc32)cc1 | – | inconclusive: 28.2 µM [inhibitor, partial curve, poor fit]
